Data reported in publication PMC6804849.

test system: GST-tSlARF6A (truncated SlARF6A, putative DNA-binding domain) (Solanum lycopersicum); assay: EMSA; details: LightShift Chemiluminescent EMSA kit, 6% native polyacrylamide gel; pH and temperature not stated; recombinant protein; protein details: GST (pGEX-4T-1); label: biotin (3' end labeling kit)

Binding result, binds:
CTACTTGGGCAACCCAAGCTTGGTCCATGCACAGAGCATCTTAGCCATCT (double strand) [CAB1 promoter probe], TACTACAGCAAATTTCTGTTATTGTCTCCTCCCATTTAGGCTGTTTTGA (double strand) [RbcS promoter probe], CATGACAACATCATTAAAATGAGACATAAATTTCAGAGGTGGTGCT (double strand) [SlGLK1 promoter probe], ACAATATATGAAATAGTTACTGTCTCTTTTACCAGGTACTAGAAAA (double strand) [SAMS1 promoter probe], AAATAAAGGAATCATCATGCTACTGTCGGCACTAAGTTAAGAGTATTGCT (double strand) [CAB2 promoter probe]

The exact form of at least one protein or probe is not confirmed.
